The target of data set [1] is T1, GST-Gaf1 (UniProt Q10280).
T1 sequence (looked up): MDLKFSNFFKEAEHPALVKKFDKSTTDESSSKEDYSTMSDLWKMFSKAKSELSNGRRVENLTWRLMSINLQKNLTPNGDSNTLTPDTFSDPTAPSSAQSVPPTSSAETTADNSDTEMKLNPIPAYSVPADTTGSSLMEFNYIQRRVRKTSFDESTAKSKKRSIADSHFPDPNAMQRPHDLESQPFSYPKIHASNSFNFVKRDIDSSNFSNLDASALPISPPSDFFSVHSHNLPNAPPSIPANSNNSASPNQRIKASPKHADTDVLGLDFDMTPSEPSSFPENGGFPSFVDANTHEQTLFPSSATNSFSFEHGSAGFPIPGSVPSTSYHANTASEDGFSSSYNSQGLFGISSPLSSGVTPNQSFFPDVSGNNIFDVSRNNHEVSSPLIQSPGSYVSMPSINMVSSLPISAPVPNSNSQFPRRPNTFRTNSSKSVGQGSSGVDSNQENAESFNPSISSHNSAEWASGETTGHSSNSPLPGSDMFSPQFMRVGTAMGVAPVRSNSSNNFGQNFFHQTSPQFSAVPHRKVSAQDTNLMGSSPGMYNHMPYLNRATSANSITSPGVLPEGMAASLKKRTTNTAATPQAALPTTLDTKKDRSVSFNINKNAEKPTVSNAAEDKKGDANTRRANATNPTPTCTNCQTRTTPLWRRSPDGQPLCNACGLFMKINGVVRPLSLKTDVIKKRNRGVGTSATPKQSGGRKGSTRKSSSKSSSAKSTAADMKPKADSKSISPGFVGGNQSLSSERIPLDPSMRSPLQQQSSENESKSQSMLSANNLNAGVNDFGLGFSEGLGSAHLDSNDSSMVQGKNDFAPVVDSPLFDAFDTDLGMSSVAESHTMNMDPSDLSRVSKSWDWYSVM
As to the kind of experiment: EMSA. Particulars: 10 mM Tris pH 7.5, 2 mM MgCl2, 50 mM NaCl, 1 mM DTT, 5% glycerol, 2 ug poly(dI-dC) in 20 ul, room temperature, 20 min; 6% native PAGE; recombinant protein; residues 1-855; protein details: N-terminal GST (pGEX4T3); label: 32P 5'-end; probe letters rebuilt from the primers and the genome.

The target of data set [2] is T1, GST-Gaf1. As to the kind of experiment: competition with a labelled probe. Particulars: cold PA, 50- and 100-fold, against labeled PA; 10 mM Tris pH 7.5, 2 mM MgCl2, 50 mM NaCl, 1 mM DTT, 5% glycerol, 2 ug poly(dI-dC) in 20 ul, room temperature, 20 min; 6% native PAGE; recombinant protein; residues 1-855; protein details: N-terminal GST (pGEX4T3); label: 32P 5'-end; probe letters rebuilt from the primers and the genome.

Consider 1 sequence from article PMC3416868, “The Fission Yeast GATA Factor, Gaf1, Modulates Sexual Development via Direct Down-Regulation of ste11+ Expression in Response to Nitrogen Starvation”.

Where a protein sequence is shown, tags need not be part of it.

As to “ACATATGATGCGAAAGCATTTGTCACTTTTACTTGCCTACAAACGATGTAACACAGCAAACAAAGTCAGGGATTCCCCCCTGTACAAAAGATTAGTGTGGCACTTGGCAAAAAGTCTCGCAAAGCTACTTTTCGTTGAGGGAGATAGCGCAAGGCAAAATGACAAGAAGCCAACGACTAGTCTTCCAATGAATGAGGAATTGTAGAACGCTGGGGAAGTTGGAGAGTTAAGGAGGGGTGGAGAAAGCAAAATAGAGTAAGCGGGCATTTGAAGAGCGGCAATTTGCGAAACCGCAGGGTATTATAGGTAAGGTTTAAGCAAATGTTAAAAGAATAAAAAAGCATAGCGAATGTGTGAAAACAAGTGCCGGCAGTTTGAGTAGTAAGCAAGTGATGAGGAAGTAGTTTGGGGTGAACGGAACGGGAGTGAAATAAGAATGGCGAAGACTTGGAGTCATGATGAAAAATACAGGTACTACGAGCGGAAGGAAAGAAACCACACACATACAATGATTCTATCGAGTCATTGCCATTGGAATTTTGCTACAATTTACCGAAAATTAGGCGTGGGTGCTTGTGTTTCCCTTCCATCATCCCTGGAGATGGCATGC (double strand) [PA]”, the binding result with GST-Gaf1 [1] and with GST-Gaf1 [2] was “binds” each time.
